The values below come from paper PMC3031599.

The chains behind the UniProt entries cited, without tags or fusion partners.
UniProt P29590: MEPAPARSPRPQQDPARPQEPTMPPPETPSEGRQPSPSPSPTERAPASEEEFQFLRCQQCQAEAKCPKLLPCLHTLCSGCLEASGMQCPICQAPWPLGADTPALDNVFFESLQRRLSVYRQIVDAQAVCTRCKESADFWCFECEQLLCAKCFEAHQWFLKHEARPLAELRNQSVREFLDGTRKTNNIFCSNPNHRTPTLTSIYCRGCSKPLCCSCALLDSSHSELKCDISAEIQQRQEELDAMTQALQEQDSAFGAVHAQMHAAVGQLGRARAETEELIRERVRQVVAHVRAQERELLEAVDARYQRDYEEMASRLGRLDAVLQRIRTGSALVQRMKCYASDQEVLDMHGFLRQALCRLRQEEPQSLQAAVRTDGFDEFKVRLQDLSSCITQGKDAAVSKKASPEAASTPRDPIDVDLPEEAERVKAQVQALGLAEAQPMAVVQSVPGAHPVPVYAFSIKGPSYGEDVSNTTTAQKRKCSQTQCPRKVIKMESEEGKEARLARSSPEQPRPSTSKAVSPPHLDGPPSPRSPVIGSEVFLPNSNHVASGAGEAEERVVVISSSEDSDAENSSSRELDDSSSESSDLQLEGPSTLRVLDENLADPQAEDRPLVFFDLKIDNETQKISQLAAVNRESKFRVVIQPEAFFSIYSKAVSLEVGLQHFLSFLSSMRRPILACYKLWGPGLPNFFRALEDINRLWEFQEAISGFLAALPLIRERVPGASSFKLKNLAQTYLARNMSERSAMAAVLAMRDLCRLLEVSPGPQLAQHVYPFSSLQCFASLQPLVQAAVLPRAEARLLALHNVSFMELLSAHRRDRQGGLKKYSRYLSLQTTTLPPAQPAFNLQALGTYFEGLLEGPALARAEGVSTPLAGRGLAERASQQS
UniProt Q93009: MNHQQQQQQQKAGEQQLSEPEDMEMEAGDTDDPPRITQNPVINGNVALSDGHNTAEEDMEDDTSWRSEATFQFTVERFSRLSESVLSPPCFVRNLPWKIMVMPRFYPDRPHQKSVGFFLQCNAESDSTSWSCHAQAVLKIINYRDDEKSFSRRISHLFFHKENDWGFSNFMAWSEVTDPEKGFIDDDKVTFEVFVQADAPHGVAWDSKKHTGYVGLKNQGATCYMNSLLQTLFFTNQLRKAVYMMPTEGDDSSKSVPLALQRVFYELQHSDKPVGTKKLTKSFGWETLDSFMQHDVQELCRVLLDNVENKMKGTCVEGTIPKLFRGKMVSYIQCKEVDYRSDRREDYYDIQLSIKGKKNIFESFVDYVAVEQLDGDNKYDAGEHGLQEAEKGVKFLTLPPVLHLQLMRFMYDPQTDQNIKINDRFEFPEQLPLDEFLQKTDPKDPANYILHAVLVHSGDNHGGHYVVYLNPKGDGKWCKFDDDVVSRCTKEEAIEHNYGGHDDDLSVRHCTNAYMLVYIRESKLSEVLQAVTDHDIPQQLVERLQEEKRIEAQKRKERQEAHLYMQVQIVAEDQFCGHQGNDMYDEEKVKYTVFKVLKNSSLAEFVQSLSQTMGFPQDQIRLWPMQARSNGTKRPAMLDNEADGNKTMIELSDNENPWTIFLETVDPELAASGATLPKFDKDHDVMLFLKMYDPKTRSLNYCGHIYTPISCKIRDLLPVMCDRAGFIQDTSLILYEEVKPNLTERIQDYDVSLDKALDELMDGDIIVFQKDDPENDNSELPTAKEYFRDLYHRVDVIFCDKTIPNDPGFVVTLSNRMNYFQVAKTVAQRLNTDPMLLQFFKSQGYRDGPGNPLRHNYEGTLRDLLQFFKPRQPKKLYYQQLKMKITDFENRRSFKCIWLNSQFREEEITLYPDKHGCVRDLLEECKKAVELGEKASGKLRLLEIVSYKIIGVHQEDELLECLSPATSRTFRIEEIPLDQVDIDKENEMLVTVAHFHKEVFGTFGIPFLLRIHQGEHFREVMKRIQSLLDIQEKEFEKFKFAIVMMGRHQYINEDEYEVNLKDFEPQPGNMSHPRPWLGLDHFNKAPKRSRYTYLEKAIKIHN

These are yes or no findings as the source states them, for the method shown. Binding seen in cells or lysates may run through a third protein. Some results given as binding are weak or reduced against the parent protein; the word gives no strength.

Test [1] deals with promyelocytic leukemia (PML) tumor suppressor protein, endogenous PML isoforms (human (endogenous in CNE2)) (UniProt P29590). Briefly: co-IP; endogenous proteins from CNE2 nuclear extracts (nuclei by hypotonic lysis, RIPA buffer: 50 mM Tris.Cl pH 8.0, 150 mM NaCl, 1% NP40, 0.1% sodium deoxycholate); 1.5 mg lysate overnight at 4°C with 2 µg anti-PML or anti-USP7 antibody on ExactaCruz resin; blotted with the reciprocal antibody; normal rabbit IgG as negative control.

The target in test [2] is ubiquitin specific protease USP7 (human (endogenous in CNE2)) (UniProt Q93009). The test is described as above.

Regarding “ubiquitin specific protease USP7 (from UniProt Q93009 1-1102) (enzyme)”, the binding entry in test [1] is “binds”.
With “promyelocytic leukemia (PML) tumor suppressor protein, endogenous PML isoforms (from UniProt P29590 1-882)”, the binding entry in test [2] was “binds”.
